Values of other authors as cited in patent US20230073301A1, “TISSUE DOSING FOR INTRALUMINAL LOCAL DRUG DELIVERY” (ISOLA THERAPEUTICS, INC., priority 2020, published 2023).

Conditions: cited from earlier work

Structure (SMILES): CC(=O)O[C@H]1C(=O)[C@@]2(C)[C@H]([C@H](OC(=O)c3ccccc3)[C@]3(O)C[C@H](OC(=O)[C@H](O)[C@@H](NC(=O)c4ccccc4)c4ccccc4)C(C)=C1C3(C)C)[C@]1(OC(C)=O)CO[C@@H]1C[C@@H]2O [PTX, 5β,20-Epoxy-1,2α,4,7β,10β,13α-hexahydroxytax-11-en-9-one 4,10-diacetate 2-benzoate 13-ester with (2R,3S)-N-benzoyl-3-phenylisoserine]
- solubility in water: insoluble in water
